# Measured values reported in paper PMC5524797.
# Sequences of proteins named here, by UniProt entry; tags and fusion partners are left off.
# UniProt Q70KF4: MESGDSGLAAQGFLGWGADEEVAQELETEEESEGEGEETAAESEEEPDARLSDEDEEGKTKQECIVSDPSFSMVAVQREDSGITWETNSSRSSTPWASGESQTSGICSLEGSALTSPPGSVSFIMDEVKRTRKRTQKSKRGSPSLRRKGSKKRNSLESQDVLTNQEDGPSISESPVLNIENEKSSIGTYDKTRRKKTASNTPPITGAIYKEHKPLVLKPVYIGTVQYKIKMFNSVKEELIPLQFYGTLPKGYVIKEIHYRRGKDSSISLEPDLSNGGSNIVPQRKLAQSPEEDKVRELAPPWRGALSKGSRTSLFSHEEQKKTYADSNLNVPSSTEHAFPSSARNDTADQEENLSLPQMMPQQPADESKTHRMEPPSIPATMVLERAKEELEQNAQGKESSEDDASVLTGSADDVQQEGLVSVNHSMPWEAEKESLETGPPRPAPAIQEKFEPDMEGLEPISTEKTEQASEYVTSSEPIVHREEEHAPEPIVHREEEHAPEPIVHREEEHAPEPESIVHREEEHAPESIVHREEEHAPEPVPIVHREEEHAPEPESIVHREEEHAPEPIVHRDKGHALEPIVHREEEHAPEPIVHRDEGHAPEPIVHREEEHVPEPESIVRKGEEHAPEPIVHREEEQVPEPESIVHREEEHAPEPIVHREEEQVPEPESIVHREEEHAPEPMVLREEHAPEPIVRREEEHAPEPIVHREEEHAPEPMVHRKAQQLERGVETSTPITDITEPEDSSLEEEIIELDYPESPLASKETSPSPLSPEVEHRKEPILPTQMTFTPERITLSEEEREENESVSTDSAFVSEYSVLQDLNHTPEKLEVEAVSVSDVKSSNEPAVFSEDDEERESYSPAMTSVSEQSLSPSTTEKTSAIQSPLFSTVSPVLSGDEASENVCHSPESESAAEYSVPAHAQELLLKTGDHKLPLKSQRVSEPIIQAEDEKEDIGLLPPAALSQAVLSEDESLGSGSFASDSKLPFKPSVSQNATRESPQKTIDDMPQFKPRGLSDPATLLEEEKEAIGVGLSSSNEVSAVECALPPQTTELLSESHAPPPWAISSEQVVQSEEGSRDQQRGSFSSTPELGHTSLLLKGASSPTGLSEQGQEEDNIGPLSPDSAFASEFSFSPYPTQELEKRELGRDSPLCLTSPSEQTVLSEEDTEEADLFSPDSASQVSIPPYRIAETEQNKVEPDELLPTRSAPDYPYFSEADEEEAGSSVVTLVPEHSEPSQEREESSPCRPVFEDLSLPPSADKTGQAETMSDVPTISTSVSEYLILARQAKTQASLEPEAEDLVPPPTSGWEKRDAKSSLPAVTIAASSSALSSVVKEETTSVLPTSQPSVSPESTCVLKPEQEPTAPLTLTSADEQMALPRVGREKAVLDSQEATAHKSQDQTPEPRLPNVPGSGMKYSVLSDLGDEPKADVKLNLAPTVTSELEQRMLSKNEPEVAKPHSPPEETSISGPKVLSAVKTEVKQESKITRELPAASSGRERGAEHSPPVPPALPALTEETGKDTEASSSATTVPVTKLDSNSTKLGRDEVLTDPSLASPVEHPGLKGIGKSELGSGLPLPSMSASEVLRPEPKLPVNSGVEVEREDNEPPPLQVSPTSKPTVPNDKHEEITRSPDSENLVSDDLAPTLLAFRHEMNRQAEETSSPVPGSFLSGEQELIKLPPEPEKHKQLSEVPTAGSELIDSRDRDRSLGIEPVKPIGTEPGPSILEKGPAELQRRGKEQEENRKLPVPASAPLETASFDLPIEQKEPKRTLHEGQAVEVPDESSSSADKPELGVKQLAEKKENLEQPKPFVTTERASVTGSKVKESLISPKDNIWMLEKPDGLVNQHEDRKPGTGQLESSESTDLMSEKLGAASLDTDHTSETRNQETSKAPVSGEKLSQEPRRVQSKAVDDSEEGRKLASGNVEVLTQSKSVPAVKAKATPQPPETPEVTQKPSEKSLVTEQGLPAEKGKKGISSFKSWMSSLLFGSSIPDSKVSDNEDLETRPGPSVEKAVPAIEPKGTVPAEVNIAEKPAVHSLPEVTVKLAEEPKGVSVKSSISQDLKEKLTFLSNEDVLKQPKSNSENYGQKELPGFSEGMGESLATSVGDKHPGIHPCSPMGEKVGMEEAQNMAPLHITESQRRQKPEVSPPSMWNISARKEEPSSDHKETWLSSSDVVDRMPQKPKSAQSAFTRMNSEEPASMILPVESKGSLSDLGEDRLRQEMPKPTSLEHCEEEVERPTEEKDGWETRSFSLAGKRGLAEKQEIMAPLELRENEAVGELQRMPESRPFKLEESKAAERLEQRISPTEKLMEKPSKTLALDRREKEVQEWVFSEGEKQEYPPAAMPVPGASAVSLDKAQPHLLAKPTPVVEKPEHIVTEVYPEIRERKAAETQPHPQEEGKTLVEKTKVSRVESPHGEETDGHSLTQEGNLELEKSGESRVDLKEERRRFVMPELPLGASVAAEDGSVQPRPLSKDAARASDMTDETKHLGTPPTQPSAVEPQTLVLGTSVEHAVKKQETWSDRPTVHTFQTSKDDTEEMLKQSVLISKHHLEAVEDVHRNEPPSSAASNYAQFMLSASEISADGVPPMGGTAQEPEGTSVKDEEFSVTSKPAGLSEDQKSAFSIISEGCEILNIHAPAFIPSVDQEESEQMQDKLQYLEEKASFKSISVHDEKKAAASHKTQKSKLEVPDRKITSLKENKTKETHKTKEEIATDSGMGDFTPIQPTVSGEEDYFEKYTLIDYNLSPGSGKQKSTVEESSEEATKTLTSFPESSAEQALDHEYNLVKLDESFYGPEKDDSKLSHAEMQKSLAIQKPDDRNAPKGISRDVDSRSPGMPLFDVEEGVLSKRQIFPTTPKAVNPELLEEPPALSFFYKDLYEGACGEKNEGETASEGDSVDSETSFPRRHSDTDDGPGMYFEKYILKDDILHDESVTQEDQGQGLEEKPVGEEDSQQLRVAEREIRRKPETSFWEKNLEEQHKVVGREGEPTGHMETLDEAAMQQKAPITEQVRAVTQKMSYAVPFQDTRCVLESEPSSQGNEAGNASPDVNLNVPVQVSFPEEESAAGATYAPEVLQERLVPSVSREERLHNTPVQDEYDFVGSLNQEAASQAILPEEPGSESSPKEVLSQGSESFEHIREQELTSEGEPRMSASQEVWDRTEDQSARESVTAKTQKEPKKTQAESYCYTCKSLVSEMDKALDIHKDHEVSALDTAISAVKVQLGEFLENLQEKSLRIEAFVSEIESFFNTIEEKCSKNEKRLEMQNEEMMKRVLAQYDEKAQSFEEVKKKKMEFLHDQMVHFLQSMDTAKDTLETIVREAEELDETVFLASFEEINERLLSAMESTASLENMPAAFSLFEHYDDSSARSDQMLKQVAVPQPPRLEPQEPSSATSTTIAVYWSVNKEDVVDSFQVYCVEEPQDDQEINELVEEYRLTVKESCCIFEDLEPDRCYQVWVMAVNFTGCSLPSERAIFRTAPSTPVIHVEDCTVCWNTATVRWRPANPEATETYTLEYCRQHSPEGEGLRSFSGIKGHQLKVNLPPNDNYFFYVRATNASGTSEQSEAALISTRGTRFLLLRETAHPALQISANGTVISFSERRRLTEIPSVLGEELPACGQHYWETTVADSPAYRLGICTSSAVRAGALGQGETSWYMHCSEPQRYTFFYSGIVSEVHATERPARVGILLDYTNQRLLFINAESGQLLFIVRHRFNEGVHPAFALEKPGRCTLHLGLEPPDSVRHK
# Results are given in words; binding and its absence hold for the method and conditions named. Binding seen in cells or lysates may run through a third protein. Some binding calls cover weakened binding; strength is not graded here.
# T1: minispryn (mouse (endogenous in heart)) (UniProt Q8BZ52)
# T1 sequence: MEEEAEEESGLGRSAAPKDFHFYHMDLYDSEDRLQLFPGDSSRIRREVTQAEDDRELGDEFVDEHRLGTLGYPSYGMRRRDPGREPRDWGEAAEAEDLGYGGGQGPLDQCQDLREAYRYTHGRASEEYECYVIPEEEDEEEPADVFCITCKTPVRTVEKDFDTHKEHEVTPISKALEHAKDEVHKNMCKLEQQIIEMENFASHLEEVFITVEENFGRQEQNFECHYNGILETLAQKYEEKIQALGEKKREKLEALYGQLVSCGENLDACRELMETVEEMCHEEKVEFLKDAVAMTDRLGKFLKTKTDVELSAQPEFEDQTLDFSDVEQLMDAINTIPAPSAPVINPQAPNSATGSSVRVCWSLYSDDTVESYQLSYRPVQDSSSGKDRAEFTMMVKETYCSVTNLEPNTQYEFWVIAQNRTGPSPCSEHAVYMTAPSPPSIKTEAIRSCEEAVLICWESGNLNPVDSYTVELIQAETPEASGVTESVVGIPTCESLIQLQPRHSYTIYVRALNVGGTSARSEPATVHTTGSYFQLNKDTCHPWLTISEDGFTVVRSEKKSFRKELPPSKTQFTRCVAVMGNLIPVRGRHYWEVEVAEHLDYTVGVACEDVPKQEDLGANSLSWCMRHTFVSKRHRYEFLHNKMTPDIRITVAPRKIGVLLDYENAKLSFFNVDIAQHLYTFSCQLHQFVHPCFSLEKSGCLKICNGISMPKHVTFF
# Experiments:
# [1] = target: T1, minispryn (mouse (endogenous in heart)); test: co-IP; RIPA extracts of cardiac muscle and of skeletal muscle; immunoprecipitated with anti-myospryn or anti-minispryn antisera, detected by immunoblot; unrelated IgG as control
# [2] = target: myospryn (mouse (endogenous in heart)) (UniProt Q70KF4); test: as above
binding [1],binding [2],Molecule
binds,,myospryn (from UniProt Q70KF4 1-3739)
,binds,"minispryn (protein, UniProt Q8BZ52 1-716) MEEEAEEESGLGRSAAPKDFHFYHMDLYDSEDRLQLFPGDSSRIRREVTQAEDDRELGDEFVDEHRLGTLGYPSYGMRRRDPGREPRDWGEAAEAEDLGYGGGQGPLDQCQDLREAYRYTHGRASEEYECYVIPEEEDEEEPADVFCITCKTPVRTVEKDFDTHKEHEVTPISKALEHAKDEVHKNMCKLEQQIIEMENFASHLEEVFITVEENFGRQEQNFECHYNGILETLAQKYEEKIQALGEKKREKLEALYGQLVSCGENLDACRELMETVEEMCHEEKVEFLKDAVAMTDRLGKFLKTKTDVELSAQPEFEDQTLDFSDVEQLMDAINTIPAPSAPVINPQAPNSATGSSVRVCWSLYSDDTVESYQLSYRPVQDSSSGKDRAEFTMMVKETYCSVTNLEPNTQYEFWVIAQNRTGPSPCSEHAVYMTAPSPPSIKTEAIRSCEEAVLICWESGNLNPVDSYTVELIQAETPEASGVTESVVGIPTCESLIQLQPRHSYTIYVRALNVGGTSARSEPATVHTTGSYFQLNKDTCHPWLTISEDGFTVVRSEKKSFRKELPPSKTQFTRCVAVMGNLIPVRGRHYWEVEVAEHLDYTVGVACEDVPKQEDLGANSLSWCMRHTFVSKRHRYEFLHNKMTPDIRITVAPRKIGVLLDYENAKLSFFNVDIAQHLYTFSCQLHQFVHPCFSLEKSGCLKICNGISMPKHVTFF"
